Some of the results follow.
Experiments:
Test in all cases: log2 fold change, soluble protein after heating vs DMSO (PISA); higher = thermal stabilisation; K562 lysate, 10 uM; active = over 0.2 and 3.5 SD of the protein, either way, in both replicates (recomputed)
[1] = compound: C1=CC=C(C=C1)[C@H](COC2=CC3=C(C=C2)NC(=O)N3)NC(=O)C4=CC=CN(C4=O)CC5=CC(=C(C=C5)F)F
Method in brief: (§1)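 The values are log-two fold changes in thermal stability compared with solvent controls and come from duplicates. They were obtained by TMTpro 16plex LC-MS/MS, with channel sums equalised, on the supernatant after 21,000xg for 90 min. That supernatant came from crude K562 extract at 1 mg/mL protein treated with 10 μM compound for 30 min, heated for 3 min across 48°C-58°C, pooled and brought to 0.5% NP-40 at 4°C.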

The chains behind the UniProt entries cited, without tags or fusion partners. Where a name states a change or a piece, a line headed by the entry shows the natural chain unless it says otherwise.
UniProt Q9NR31: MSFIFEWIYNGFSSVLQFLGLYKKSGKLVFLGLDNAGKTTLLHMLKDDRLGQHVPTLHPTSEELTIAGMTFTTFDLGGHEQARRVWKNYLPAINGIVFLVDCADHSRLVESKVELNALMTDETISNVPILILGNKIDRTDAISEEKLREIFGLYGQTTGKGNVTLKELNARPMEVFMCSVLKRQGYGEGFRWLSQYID
UniProt Q9NTJ5: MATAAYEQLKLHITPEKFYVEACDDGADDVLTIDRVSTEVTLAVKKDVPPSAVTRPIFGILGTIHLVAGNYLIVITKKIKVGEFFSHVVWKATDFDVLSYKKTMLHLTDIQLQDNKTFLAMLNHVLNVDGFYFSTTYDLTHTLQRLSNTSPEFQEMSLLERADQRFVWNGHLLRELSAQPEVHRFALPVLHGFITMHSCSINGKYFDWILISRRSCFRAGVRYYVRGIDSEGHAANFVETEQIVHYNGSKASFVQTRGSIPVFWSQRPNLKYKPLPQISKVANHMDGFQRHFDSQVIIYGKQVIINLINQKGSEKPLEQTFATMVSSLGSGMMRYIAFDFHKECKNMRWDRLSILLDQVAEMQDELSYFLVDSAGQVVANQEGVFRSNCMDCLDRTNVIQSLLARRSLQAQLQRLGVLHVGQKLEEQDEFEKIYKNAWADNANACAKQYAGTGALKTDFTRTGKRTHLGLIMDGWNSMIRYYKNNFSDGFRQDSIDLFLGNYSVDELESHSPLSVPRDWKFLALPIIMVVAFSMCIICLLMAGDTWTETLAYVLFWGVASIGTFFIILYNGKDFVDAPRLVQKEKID
UniProt Q96FV2: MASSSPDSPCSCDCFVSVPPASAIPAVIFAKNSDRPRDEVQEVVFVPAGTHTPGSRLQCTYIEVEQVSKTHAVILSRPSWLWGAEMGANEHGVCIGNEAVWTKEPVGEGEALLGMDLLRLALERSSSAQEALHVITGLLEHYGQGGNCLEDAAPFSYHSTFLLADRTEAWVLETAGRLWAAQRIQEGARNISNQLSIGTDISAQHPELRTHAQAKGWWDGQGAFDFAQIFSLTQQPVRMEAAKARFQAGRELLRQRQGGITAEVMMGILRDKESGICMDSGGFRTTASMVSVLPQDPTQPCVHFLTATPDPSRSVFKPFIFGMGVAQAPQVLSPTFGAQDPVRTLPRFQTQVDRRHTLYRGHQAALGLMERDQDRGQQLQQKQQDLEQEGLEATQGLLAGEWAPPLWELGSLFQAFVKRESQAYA
UniProt Q96KG9: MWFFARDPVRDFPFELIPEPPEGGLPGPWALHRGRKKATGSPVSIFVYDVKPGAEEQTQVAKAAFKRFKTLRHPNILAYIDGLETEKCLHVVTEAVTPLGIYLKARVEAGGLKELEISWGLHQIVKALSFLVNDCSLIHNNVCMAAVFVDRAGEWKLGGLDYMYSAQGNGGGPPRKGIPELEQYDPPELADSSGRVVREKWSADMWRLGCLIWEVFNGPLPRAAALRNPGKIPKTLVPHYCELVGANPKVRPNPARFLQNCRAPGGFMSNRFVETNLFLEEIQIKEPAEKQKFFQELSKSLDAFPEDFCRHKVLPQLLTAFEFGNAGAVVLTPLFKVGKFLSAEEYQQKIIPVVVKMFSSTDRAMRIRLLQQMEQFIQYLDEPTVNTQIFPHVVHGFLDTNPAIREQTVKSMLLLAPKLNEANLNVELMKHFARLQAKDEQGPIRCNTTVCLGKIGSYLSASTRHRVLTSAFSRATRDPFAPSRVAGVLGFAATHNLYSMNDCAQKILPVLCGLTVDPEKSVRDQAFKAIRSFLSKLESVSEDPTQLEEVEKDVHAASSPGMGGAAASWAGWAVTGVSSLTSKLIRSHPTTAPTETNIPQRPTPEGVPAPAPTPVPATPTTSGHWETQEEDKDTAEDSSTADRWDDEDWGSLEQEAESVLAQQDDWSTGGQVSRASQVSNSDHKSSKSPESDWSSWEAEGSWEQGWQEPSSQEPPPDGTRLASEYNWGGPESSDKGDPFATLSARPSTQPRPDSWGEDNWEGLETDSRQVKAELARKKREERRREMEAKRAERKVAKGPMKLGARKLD
UniProt Q9GZR1: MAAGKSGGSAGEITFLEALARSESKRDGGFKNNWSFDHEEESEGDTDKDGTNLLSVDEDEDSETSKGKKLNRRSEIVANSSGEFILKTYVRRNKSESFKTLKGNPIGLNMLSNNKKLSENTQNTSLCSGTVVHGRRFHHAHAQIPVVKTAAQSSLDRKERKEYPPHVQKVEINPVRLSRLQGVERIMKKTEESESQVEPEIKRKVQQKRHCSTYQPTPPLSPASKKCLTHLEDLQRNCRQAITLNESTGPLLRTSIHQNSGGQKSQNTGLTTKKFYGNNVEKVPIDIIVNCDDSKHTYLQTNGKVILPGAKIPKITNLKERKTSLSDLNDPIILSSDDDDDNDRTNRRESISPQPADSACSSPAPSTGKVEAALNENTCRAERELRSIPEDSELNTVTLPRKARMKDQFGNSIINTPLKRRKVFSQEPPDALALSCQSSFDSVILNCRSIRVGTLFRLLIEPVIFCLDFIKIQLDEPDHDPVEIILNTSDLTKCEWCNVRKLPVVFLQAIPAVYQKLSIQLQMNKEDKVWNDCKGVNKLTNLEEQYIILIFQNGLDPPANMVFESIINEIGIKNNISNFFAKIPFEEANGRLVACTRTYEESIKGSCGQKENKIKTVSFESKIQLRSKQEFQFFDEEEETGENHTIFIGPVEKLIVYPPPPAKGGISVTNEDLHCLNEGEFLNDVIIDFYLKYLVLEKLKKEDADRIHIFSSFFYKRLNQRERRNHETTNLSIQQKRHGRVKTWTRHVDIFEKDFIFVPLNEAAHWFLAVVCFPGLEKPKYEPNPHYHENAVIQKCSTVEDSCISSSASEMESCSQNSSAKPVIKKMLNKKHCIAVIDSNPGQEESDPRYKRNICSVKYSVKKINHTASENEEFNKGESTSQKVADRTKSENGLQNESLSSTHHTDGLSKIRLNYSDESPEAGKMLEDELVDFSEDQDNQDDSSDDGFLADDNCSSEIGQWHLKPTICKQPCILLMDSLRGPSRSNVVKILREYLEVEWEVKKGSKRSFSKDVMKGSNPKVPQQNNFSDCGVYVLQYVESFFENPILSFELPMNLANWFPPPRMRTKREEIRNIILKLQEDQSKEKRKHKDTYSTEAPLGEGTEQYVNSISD
UniProt Q68CR1: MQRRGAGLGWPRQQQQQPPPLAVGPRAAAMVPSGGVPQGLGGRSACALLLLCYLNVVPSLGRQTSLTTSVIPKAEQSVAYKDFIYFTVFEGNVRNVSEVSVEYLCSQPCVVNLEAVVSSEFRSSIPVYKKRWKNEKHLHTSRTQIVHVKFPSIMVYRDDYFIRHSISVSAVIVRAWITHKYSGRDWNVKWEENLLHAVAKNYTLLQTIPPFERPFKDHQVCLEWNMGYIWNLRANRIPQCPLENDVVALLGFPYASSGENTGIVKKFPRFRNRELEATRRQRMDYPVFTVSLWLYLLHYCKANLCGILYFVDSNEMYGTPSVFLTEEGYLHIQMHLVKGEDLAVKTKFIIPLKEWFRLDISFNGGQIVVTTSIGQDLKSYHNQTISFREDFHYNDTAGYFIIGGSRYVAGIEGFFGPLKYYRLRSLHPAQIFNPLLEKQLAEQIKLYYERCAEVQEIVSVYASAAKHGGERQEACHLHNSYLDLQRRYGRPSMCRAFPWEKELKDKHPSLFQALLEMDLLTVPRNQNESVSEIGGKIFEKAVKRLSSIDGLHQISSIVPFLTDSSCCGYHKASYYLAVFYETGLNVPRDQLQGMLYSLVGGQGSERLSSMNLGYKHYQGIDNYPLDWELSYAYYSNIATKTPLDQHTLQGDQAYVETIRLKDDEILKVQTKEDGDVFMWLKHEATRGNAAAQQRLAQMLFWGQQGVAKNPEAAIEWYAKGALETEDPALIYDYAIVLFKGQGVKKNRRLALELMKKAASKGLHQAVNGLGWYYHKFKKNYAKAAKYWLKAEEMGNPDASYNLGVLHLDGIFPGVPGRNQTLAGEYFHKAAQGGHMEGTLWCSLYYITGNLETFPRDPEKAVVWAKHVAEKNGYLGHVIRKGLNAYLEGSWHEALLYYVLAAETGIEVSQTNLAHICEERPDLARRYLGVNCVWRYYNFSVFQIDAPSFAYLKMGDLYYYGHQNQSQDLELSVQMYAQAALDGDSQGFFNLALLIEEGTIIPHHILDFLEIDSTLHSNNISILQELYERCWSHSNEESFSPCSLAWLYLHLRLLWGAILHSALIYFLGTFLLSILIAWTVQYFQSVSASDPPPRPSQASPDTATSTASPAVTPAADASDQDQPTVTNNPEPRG
UniProt O00560: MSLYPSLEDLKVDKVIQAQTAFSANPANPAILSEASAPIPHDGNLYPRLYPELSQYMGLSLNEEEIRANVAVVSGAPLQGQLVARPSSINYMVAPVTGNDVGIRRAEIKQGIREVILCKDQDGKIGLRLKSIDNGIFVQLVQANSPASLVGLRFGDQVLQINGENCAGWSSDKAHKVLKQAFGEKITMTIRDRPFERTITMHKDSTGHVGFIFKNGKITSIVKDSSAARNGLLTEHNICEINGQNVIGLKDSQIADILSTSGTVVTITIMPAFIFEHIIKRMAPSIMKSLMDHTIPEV
UniProt Q9UQR0: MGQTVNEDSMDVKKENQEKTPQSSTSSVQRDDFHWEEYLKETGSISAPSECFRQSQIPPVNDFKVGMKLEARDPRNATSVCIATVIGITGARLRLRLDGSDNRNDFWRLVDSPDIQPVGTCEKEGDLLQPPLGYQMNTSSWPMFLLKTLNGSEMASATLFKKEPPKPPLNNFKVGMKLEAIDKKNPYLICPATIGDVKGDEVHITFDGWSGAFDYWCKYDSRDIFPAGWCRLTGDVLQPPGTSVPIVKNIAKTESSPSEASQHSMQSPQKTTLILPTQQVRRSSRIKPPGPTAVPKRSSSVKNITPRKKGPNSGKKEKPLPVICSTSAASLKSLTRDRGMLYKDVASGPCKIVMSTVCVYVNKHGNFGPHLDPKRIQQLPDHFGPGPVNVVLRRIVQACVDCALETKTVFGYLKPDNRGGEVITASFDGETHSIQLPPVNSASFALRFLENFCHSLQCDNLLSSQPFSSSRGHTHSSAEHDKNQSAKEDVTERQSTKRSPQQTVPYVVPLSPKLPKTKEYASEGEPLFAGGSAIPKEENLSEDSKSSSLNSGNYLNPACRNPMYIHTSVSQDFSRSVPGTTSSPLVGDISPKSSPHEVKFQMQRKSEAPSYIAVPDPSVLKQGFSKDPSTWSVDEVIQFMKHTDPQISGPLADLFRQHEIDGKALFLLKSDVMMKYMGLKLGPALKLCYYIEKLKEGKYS
UniProt Q9UBE0: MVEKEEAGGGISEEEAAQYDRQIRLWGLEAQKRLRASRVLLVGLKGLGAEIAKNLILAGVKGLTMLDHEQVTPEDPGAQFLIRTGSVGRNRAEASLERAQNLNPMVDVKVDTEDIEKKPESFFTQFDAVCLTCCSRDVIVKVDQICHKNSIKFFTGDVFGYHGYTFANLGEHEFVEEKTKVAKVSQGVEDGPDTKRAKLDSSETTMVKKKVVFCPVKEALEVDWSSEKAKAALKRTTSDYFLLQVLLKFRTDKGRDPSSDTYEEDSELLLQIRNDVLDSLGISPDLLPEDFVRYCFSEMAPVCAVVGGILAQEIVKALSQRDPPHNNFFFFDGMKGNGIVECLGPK
UniProt Q15019: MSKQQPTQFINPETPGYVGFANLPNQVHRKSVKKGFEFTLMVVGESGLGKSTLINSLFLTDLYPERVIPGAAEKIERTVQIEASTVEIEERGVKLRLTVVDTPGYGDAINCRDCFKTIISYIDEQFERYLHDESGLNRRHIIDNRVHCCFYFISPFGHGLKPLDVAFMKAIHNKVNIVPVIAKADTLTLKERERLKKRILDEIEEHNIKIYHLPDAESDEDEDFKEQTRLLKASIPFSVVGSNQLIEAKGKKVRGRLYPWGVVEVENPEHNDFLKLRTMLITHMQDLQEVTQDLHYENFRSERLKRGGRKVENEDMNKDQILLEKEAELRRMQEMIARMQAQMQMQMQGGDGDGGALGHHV
UniProt O00422: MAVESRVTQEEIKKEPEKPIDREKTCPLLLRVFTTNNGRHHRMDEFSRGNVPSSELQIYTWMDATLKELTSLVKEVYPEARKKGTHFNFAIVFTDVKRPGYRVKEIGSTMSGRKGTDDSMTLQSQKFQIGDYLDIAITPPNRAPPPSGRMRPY
UniProt A6NKF1: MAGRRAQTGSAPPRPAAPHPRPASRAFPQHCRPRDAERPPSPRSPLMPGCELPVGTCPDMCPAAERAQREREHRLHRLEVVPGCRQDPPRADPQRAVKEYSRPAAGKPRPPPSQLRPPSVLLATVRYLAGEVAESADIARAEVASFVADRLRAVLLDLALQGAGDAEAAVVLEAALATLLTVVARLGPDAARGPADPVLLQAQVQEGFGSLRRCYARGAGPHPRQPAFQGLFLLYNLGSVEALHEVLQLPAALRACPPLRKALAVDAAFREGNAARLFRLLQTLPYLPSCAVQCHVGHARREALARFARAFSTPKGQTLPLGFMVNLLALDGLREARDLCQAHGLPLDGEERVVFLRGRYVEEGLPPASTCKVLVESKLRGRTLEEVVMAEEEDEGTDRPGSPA

[2] = compound: CC1=C(SC2=C1C(=N[C@H](C3=NN=C(N32)C)CC(=O)N)C4=CC=C(C=C4)Cl)C
Method in brief: as §1

[3] = compound: CC1=C2C(=CC=C1)N=C(N(C2=O)C3=CC=CC=C3C)CN4C=NC5=C(N=CN=C54)N
Method in brief: as §1

[4] = compound: Cc1sc2c(c1C)C(c1ccc(Cl)cc1)=N[C@@H](CC(=O)OC(C)(C)C)c1nnc(C)n1-2
Method in brief: as §1

[5] = compound: c1ccc([C@@H]2C[C@H]2NC2CCNCC2)cc1
Method in brief: as §1

Measured: log2 fold change

SCIN (UniProt Q9Y6U3)
inactive: [1] -0.001 | [2] 0.012 | [3] -0.005 | [4] -0.034 | [5] 0.137

SDCCAG8 (UniProt Q86SQ7)
inactive: [1] 0.012 | [2] -0.067 | [3] 0.018 | [4] -0.059 | [5] -0.069

SAMHD1 (UniProt Q9Y3Z3)
inactive: [1] 0.005 | [2] 0.002 | [3] -0.018 | [4] 0.051 | [5] -0.002

SEC24B isoform 3 (UniProt O95487)
inactive: [1] -0.008 | [2] 0.001 | [3] 0.012 | [4] 0.049 | [5] 0.129

SEPTIN5 (UniProt G3XAH0)
inactive: [1] 0.015 | [2] -0.024 | [3] -0.04 | [4] 0.048 | [5] -0.078

SAR1A (UniProt Q9NR31)
inactive: [1] 0.066 | [2] 0.038 | [3] 0.005 | [4] -0.116 | [5] -0.009

SEC16A isoform 5 (UniProt O15027)
inactive: [1] -0.013 | [2] -0.005 | [3] 0.067 | [4] 0.036 | [5] 0.011

SACM1L (UniProt Q9NTJ5)
inactive: [1] -0.088 | [2] -0.012 | [3] 0.055 | [4] 0.035 | [5] 0.022

SCRN2 (UniProt Q96FV2)
inactive: [1] 0.027 | [2] -0.001 | [3] 0.178 | [4] -0.003 | [5] -0.046

SEC11A (UniProt P67812)
inactive: [1] -0.037 | [2] 0.057 | [3] 0.07 | [4] -0.067 | [5] 0.015

SBNO1 (UniProt A3KN83)
inactive: [1] 0.016 | [2] -0.001 | [3] 0.004 | [4] 0 | [5] -0.018

SCCPDH (UniProt Q8NBX0)
inactive: [1] 0.165 | [2] -0.144 | [3] 0.038 | [4] -0.004 | [5] -0.164

SEC31A (UniProt D6REX3)
inactive: [1] -0.021 | [2] 0.024 | [3] 0 | [4] 0.008 | [5] 0.016

SCYL1 (UniProt Q96KG9)
inactive: [1] 0.042 | [2] -0.004 | [3] -0.029 | [4] 0.092 | [5] -0.001

SENP6 (UniProt Q9GZR1)
inactive: [1] 0.001 | [2] -0.006 | [3] 0.022 | [4] -0.057 | [5] -0.016

SCAMP4 (UniProt Q969E2)
inactive: [1] 0.052 | [2] -0.036 | [3] -0.019 | [4] -0.056 | [5] -0.071

SDAD1 (UniProt Q9NVU7)
inactive: [1] 0.023 | [2] -0.013 | [3] -0.019 | [4] -0.028 | [5] 0.049

SELENOH (UniProt Q8IZQ5)
inactive: [1] 0.022 | [2] 0.033 | [3] 0.026 | [4] -0.022 | [5] 0.045

S100P (UniProt P25815)
inactive: [1] -0.017 | [2] -0.083 | [3] -0.066 | [4] 0.001 | [5] 0.098

SCAMP3 (UniProt O14828)
inactive: [1] 0.034 | [2] -0.048 | [3] -0.008 | [4] 0.001 | [5] -0.024

SCLT1 (UniProt Q96NL6)
inactive: [1] 0.039 | [2] 0.003 | [3] 0.073 | [4] 0.024 | [5] 0.15

SEL1L3 (UniProt Q68CR1)
inactive: [1] -0.025 | [2] 0.021 | [3] 0.028 | [4] 0.034 | [5] 0.005

SDHA (UniProt P31040)
inactive: [1] 0.114 | [2] -0.012 | [3] -0.012 | [4] 0.005 | [5] -0.007

SEPTIN7 (UniProt Q16181)
inactive: [1] 0.05 | [2] 0.012 | [3] -0.006 | [4] 0.022 | [5] 0.062

SDCBP (UniProt O00560)
inactive: [1] -0.02 | [2] -0.004 | [3] -0.031 | [4] -0.018 | [5] 0.008

SEC61A2 (UniProt Q9H9S3)
inactive: [1] -0.01 | [2] -0.051 | [3] 0.005 | [4] -0.067 | [5] -0.103

SCYL3 isoform 2 (UniProt Q8IZE3)
inactive: [1] -0.047 | [2] 0.018 | [3] 0.027 | [4] 0.009 | [5] 0.106

SCML2 (UniProt Q9UQR0)
inactive: [1] -0.036 | [2] 0.062 | [3] -0.055 | [4] -0.032 | [5] 0.02

SEPHS2 (UniProt Q99611)
inactive: [1] 0.046 | [2] 0.015 | [3] -0.056 | [4] -0.026 | [5] 0.017

2 successive records already listed, quoted:
SEC61A2 (UniProt Q9H9S3)
inactive: [1] -0.01 | [2] -0.051 | [3] 0.005 | [4] -0.067 | [5] -0.103

SCYL3 isoform 2 (UniProt Q8IZE3)
inactive: [1] -0.047 | [2] 0.018 | [3] 0.027 | [4] 0.009 | [5] 0.106

(further entries)

SAMD4B (UniProt Q5PRF9)
inactive: [1] -0.014 | [2] 0.038 | [3] 0.056 | [4] 0.01 | [5] -0.034

SEPTIN8 (UniProt Q92599)
inactive: [1] -0.019 | [2] 0.007 | [3] -0.008 | [4] 0.003 | [5] 0.048

SAE1 (UniProt Q9UBE0)
inactive: [1] -0.001 | [2] -0.001 | [3] -0.01 | [4] -0.02 | [5] 0.018

SEPTIN2 isoform 2 (UniProt Q15019)
inactive: [1] 0.014 | [2] 0.014 | [3] -0.007 | [4] -0.033 | [5] -0.039

SART3, A0A499FI31
inactive: [1] 0.015 | [2] -0.022 | [3] 0.002 | [4] 0.009 | [5] 0.021

SAP18 isoform 2 (UniProt O00422)
inactive: [1] -0.012 | [2] 0.049 | [3] 0.008 | [4] 0.036 | [5] -0.035

SEPTIN11 isoform 2 (UniProt Q9NVA2)
inactive: [1] 0.03 | [2] -0.024 | [3] 0.007 | [4] -0.028 | [5] 0.012

SEPHS1 (UniProt P49903)
inactive: [1] -0.013 | [2] -0.049 | [3] -0.007 | [4] -0.008 | [5] -0.007

SDHB (UniProt P21912)
inactive: [1] 0.102 | [2] -0.009 | [3] -0.023 | [4] 0.01 | [5] -0.002

SAC3D1 (UniProt A6NKF1)
inactive: [1] 0.001 | [2] 0.056 | [5] 0.214

SAFB2 (UniProt K7EQU4)
inactive: [1] 0.03 | [2] 0.1 | [4] -0.148

SAE1 (UniProt M0R286)
inactive: [3] 0.085 | [4] -0.062
